In PMC6685929:
These are yes or no findings as the source states them, for the method shown. In cells and extracts the contact can be indirect. Binding calls can cover weak binding; strength is not graded here.

Chains of the proteins cited; added tags and fusions are not shown. Lines headed by an entry give the natural chain unless they say otherwise; changes in a name come on top. Residues count along the entry.
UniProt O70423: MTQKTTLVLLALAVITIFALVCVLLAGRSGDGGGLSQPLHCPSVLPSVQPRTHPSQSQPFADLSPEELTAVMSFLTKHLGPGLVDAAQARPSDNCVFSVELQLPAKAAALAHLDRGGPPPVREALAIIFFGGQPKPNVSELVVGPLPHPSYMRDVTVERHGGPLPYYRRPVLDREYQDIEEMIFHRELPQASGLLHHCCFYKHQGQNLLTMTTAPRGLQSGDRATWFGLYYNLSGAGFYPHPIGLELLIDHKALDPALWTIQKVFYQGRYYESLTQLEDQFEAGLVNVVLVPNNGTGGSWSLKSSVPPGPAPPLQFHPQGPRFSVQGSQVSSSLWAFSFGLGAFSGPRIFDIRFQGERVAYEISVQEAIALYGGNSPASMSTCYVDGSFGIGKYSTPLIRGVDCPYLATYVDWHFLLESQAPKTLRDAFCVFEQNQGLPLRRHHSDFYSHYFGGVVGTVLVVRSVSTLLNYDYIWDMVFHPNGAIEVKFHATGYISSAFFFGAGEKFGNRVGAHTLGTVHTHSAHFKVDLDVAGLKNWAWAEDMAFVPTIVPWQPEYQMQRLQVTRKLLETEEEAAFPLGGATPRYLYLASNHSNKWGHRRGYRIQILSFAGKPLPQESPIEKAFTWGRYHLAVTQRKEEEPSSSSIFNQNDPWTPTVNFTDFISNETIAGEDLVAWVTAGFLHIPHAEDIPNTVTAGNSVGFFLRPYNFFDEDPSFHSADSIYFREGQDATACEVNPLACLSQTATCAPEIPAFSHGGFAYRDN
UniProt Q64726, residues 18-307: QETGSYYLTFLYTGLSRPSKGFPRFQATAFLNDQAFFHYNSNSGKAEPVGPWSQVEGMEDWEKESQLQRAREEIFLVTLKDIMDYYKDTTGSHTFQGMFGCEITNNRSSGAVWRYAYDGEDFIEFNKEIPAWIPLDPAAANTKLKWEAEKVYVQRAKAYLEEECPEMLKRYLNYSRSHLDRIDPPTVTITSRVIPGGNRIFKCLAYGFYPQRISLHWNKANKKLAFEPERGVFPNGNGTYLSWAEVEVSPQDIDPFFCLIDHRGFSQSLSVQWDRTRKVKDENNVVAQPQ

Target: GST-tagged murine AOC3, secretable form (GST-AOC3) (mouse) (UniProt O70423)
Assay: pull-down; GST-AOC3 (200 µl of 50 µg/ml) or GST on GSH-sepharose with 100 µl of 1:10 diluted murine plasma in 1 x PBS; five washes; blot with α-GST and α-ZAG; only the target purified

For “murine plasma zinc-α2-glycoprotein (ZAG) (from UniProt Q64726 18-307)”, the binding was “binds”.
